Measured values reported in US20240099991A1, “HOST DIRECTED DRUG COMBINATIONS FOR TREATMENT OF VIRAL INFECTIONS” (priority 2021, published 2024).
At least one structure is not confirmed: it was looked up by name or label, or the drawing left a doubt.

System: SARS-CoV-2
Experiment: In vivo efficacy against SARS-CoV-2 in Syrian Golden Hamster Model (lung viral load)
Text: In vivo efficacy evaluation of Atovaquone and Cepharanthine alone and in combination against SARS-CoV-2 in Syrian Golden Hamster Model [Study Protocol Reference:) Syrian hamsters as a small animal model for SARS-CoV-2 infection and countermeasure development. Masaki Imai et al., PNAS 2020, 117(28)16587-16595]
Data Analysis One way ANOVA-Dunnett's multiple comparison test

O=C1C(O)=C([C@H]2CC[C@H](c3ccc(Cl)cc3)CC2)C(=O)c2ccccc21 [Atovaquone, atovaquone]
lung viral loads in comparison with infection control (oral once-a-day treatment at 200 mg/kg): Statistically significant reduction in lung viral loads

COc1ccc2cc1Oc1ccc(cc1)C[C@H]1c3c(cc4c(c3Oc3cc5c(cc3OC)CCN(C)[C@@H]5C2)OCO4)CCN1C [Cepharanthine, cepharantine]
lung viral loads in comparison with infection control (oral once-a-day treatment at 8 mg/kg): marginal but statistically not significant reduction in lung viral loads
